According to the supplement of paper PMC6078165:

Test system: MDAMB468
Assay: relative JC-1 red fluorescence (viability) vs pre-drug, coculture with fibroblast (fraction); higher = more viable cancer cells
Procedure: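 JC-1 labelled TNBC cells cocultured 1:1 (1,500 cells each) with CellTrace Violet stained primary or stromal fibroblasts in 384-well plates in FluoroBrite medium, treated with one of 42 anticancer drugs at 0.1, 1, 10 or 100 uM. JC-1 red fluorescence (mitochondrial integrity in cancer cells only) was read by plate reader every 8 h for 72 h. Values are normalised to each well's pre-drug value. The stock of one drug was tenfold lower, so its dose labels may be too high.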

CN(Cc1cnc2nc(N)nc(N)c2n1)c1ccc(C(=O)N[C@@H](CCC(=O)O)C(=O)O)cc1 [Methotrexate]
relative JC-1 red fluorescence
Conditions	8 h	16 h	24 h	32 h	40 h	48 h	56 h	64 h	72 h
10 µM, coculture fibroblast: C12385	0.931	0.87	0.855	0.82	0.787	0.79	0.742	0.715	0.703
10 µM, coculture fibroblast: H6013	0.8758	0.817	0.769	0.756	0.714	0.721	0.685	0.67	0.605
10 µM, coculture fibroblast: H6019	0.8314	0.808	0.771	0.72	0.679	0.6665	0.625	0.601	0.584
10 µM, coculture fibroblast: H6076	0.922	0.926	0.87	0.8636	0.7922	0.789	0.741	0.726	0.787
10 µM, coculture fibroblast: H6231	0.8623	0.9822	0.841	0.836	0.767	0.743	0.689	0.662	0.646
10 µM, coculture fibroblast: HADF	0.9149	0.852	0.805	0.797	0.756	0.747	0.704	0.691	0.626
10 µM, coculture fibroblast: HCFa	0.86393	0.784	0.722	0.69	0.613	0.6	0.543	0.513	0.472
10 µM, coculture fibroblast: HCPF	0.8909	0.968	0.885	0.862	0.797	0.766	0.703	0.683	0.6612
10 µM, coculture fibroblast: HHSteC	0.9134	0.8743	0.8358	0.8082	0.77	0.774	0.708	0.696	0.651
10 µM, coculture fibroblast: HMF	0.83	0.968	0.897	0.8732	0.8033	0.7783	0.71804	0.7009	0.67983
10 µM, coculture fibroblast: HPFa	0.948	0.908	0.883	0.817	0.796	0.794	0.735	0.724	0.655
10 µM, coculture fibroblast: HUF	0.912	0.8303	0.788	0.732	0.6909	0.6821	0.637	0.6256	0.6153
10 µM, coculture fibroblast: Hs5	0.868	0.9551	0.9017	0.885	0.812	0.791	0.757	0.736	0.782
10 µM, coculture fibroblast: Hs27A	0.894	0.866	0.832	0.824	0.782	0.789	0.751	0.746	0.6889
10 µM, coculture fibroblast: Hs343T	0.859	0.939	0.867	0.839	0.763	0.733	0.679	0.657	0.631
10 µM, coculture fibroblast: WS1	0.881	0.781	0.734	0.69	0.633	0.595	0.561	0.533	0.521
100 µM, coculture fibroblast: C12385	0.903	0.841	0.811	0.748	0.699	0.682	0.636	0.607	0.59
100 µM, coculture fibroblast: H6013	0.842	0.818	0.759	0.731	0.698	0.704	0.672	0.665	0.604
100 µM, coculture fibroblast: H6019	0.8345	0.806	0.768	0.706	0.664	0.6517	0.6127	0.5909	0.561
100 µM, coculture fibroblast: H6076	0.9141	0.933	0.873	0.87	0.8	0.792	0.747	0.7322	0.794
100 µM, coculture fibroblast: H6231	0.842	0.878	0.81	0.799	0.73	0.703	0.648	0.625	0.611
100 µM, coculture fibroblast: HADF	0.8673	0.857	0.7879	0.772	0.714	0.703	0.645	0.623	0.559
100 µM, coculture fibroblast: HCFa	0.869	0.848	0.784	0.748	0.691	0.674	0.621	0.595	0.548
100 µM, coculture fibroblast: HCPF	0.846	0.926	0.846	0.829	0.763	0.736	0.681	0.661	0.633
100 µM, coculture fibroblast: HHSteC	0.897	0.875	0.831	0.799	0.764	0.764	0.716	0.697	0.649
100 µM, coculture fibroblast: HMF	0.8356	0.94	0.867	0.821	0.748	0.714	0.655	0.63	0.607
100 µM, coculture fibroblast: HPFa	0.956	0.894	0.855	0.798	0.7846	0.786	0.733	0.7334	0.671
100 µM, coculture fibroblast: HUF	0.9171	0.8392	0.79333	0.7367	0.691	0.661	0.622	0.608	0.58345
100 µM, coculture fibroblast: Hs5	0.863	0.9212	0.891	0.862	0.796	0.746	0.713	0.682	0.711
100 µM, coculture fibroblast: Hs27A	0.8574	0.824	0.74	0.721	0.653	0.642	0.591	0.564	0.529
100 µM, coculture fibroblast: Hs343T	0.831	0.887	0.8334	0.808	0.7253	0.696	0.651	0.634	0.619
100 µM, coculture fibroblast: WS1	0.8636	0.792	0.756	0.693	0.64	0.601	0.563	0.534	0.51

Values are relative to the signal before dosing, not to a vehicle control; the signal also falls without drug.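 Fibroblast labels denote human fibroblasts, mainly primary ones from uterus (C12385, HUF), lung (H6013), bone (Hs27A), adrenal (HADF) and skin (WS1), plus mammary HMF and breast cancer-associated Hs343T. Cancer cells are basal-like or mesenchymal-like triple-negative breast cancer lines. A hit is a response shift exceeding 3x replicate standard deviation. The tissue of the other fibroblasts is not given here.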
